Experimental data reported in patent US20210317204A1.
Read-outs that look alike come from different tables or passages of the source. These are yes or no findings as the source states them, for the method shown. Some binding calls cover weakened binding; strength is not graded here. Where a sequence is shown, tags or fusion partners need not be part of it.

The chains behind the UniProt entries cited, without tags or fusion partners. Residues count along the entry.
UniProt P02768, residues 25-609: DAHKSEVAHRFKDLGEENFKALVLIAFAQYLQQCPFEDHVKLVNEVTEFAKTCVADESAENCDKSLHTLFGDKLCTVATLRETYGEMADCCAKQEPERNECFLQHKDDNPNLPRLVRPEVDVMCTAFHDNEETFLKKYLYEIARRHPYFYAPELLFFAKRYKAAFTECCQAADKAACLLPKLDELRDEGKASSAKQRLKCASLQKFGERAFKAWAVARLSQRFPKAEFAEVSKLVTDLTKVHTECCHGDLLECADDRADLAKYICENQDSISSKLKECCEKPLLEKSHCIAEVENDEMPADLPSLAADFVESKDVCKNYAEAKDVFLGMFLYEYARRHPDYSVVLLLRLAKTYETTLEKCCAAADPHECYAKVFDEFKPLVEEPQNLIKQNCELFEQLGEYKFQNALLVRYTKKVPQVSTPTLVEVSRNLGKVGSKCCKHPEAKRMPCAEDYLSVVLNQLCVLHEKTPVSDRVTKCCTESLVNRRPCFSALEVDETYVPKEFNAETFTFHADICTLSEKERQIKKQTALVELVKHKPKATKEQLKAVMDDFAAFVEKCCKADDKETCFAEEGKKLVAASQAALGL

Assays:
[1] = biological target: human serum albumin (human) (UniProt P02768); test: direct ELISA on coated HSA
[2] = biological target: rat ROR1 extracellular domain-Fc fusion (rat) (UniProt D3ZZ97); test: ELISA and SPR
[3] = biological target: human serum albumin (human) (UniProt P02768); test: direct ELISA on coated HSA; remark: listed apart in the source
[4] = biological target: rat ROR1 extracellular domain-Fc fusion (rat) (UniProt D3ZZ97); test: ELISA on coated rat ROR1-Fc

binding [1]: no binding (tested: 1000 ng/ml) | binding [2]: binds | binding [3]: no binding (tested: 10 ug/ml) | binding [4]: binds
B1: P3A1 VNAR (C-terminal His6 or His6Myc tag, not said which) (VNAR, not shown: small tags and cut ends)
VNAR: TRVDQTPRTATKETGESLTINCVLTDTSYGLYSTSWFRKNPGTTDWERMSIGGRYVESVNKGAKSFSLRIKDLTVADSATYYCKAREARHPWLRQWYDGAGTVLTVN
